The nature of this test: qHTS Assay for Modulators of Lamin A Splicing. Particulars: HeLa LMNA splicing GFP/RFP minigene ratio, 48 h. The procedure, abridged:
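Read-out is the ratio of GFP to DsRed2 object intensity, acquired by 488 nm laser-scanning cytometry on HeLa lamin A-EGFP minigene reporter cells. Compound incubation 48 hrs at 37 °C in Opti-MEM with 2% FBS; DMSO 0.5% final.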

Setting [1] is: measured here: GFP splicing reporter channel.
The mark [2] stands for this setting: measured here: RFP viability control channel.

The list shows a part of the results. The main result of the screen is listed elsewhere. These columns were measured beside it and carry no call. Compounds called inactive in the main read-out are mostly missing here. The note in brackets gives the kind of curve behind each potency; many fits are weak.

AC50 data for 15 molecules are collected here from PubChem BioAssay AID1487 (National Center for Advancing Translational Sciences (NCATS), 2009).

Take `COc1cccc(N(C)C(=S)Oc2ccc3c(c2)CCCC3)n1`: the AC50 runs as follows: under setting [1], 12.6 µM [rising, partial curve, poor fit]; under setting [2], 7.94 µM [rising, partial curve].

Regarding `CC1(C)CC(N2CCCC2)=CC(=[N+]2CCCC2)C1`, the AC50 under setting [2] is 20 µM [rising, single point].

For `COCCNc1cc(C)c(C#N)c2nc3ccccc3n12`, the AC50 under setting [2] was 1.41 µM [rising, full curve].

Turning to `CCc1cc(-c2n[nH]c(=S)n2CC(C)C)cs1`, the half-maximal activity concentration (AC50) was 11.2 µM [rising, single point] under setting [1] and 31.6 µM [rising, single point] under setting [2].

For the molecule `CCOC(=O)c1c(C)[nH]c(C(=O)C(C)Cl)c1C` (configuration not stated), the half-maximal activity concentration (AC50) under setting [2] is 5.01 µM [rising, full curve, poor fit].

As to `Cc1ccc(S(=O)(=O)CCc2nc3ccccc3n2CCC#N)cc1`, the half-maximal activity concentration (AC50) under setting [2] is 11.2 µM [rising, partial curve].

For `CCCCN(C)C(=O)C(Cc1ccccc1)NS(=O)(=O)c1ccc2c(c1)CCC(=O)N2` (configuration not stated), the concentration at half-maximal activity (AC50) under setting [1] was 25.1 µM [falling, single point] and the half-maximal activity concentration (AC50) under setting [2] was 25.1 µM [falling, partial curve].

`CCOc1ccc2[nH]c(=O)c(CN(Cc3cccs3)Cc3nnnn3C(C)(C)C)cc2c1`: the concentration at half-maximal activity (AC50) under setting [1] was 15.8 µM [rising, partial curve, poor fit] and the AC50 under setting [2] was 15.8 µM [rising, single point].

For the molecule `c1cncc(-c2nnc(-c3cccnc3)nn2)c1`, the half-maximal activity concentration (AC50) under setting [2] is 35.5 µM [rising, single point].

For `Cc1cccc(N2CCN(C(=O)C3CCN(S(=O)(=O)c4cccc5nsnc45)CC3)CC2C)c1` (configuration not stated), the AC50 runs as follows: under setting [1], 6.31 µM [rising, partial curve, poor fit]; under setting [2], 10 µM [rising, partial curve].

As for `CN(C)c1nccc(N(Cc2ccccc2)Cc2ccccc2)c1C#N`, the half-maximal activity concentration (AC50) under setting [2] is 15.8 µM [falling, single point].

In the case of `COc1cccc(C(=O)NNC(=O)Cc2cccs2)c1`, the AC50 under setting [1] was 0.447 µM [rising, single point].

Take `Cc1ccc(NC(=O)Nc2ccc3nc(N4CCN(C)CC4)cc(C)c3c2)cc1C`: the half-maximal activity concentration (AC50) under setting [1] is 15.8 µM [falling, partial curve] and the AC50 under setting [2] is 25.1 µM [falling, single point].

In the case of `Cc1ccc(-n2nnnc2-c2cnn(-c3cccc(F)c3)c2C(F)(F)F)cc1`, the AC50 runs as follows: under setting [1], 20 µM [rising, single point]; under setting [2], 22.4 µM [rising, single point].

Regarding `CCOc1ccc(CC(=O)OCn2nnc3ccccc3c2=O)cc1`, under setting [1], the half-maximal activity concentration (AC50) was 3.16 µM [rising, partial curve, poor fit].

What is called AC50 is the concentration at which the activity in the assay is half-maximal.
